This is one part of the list. Further columns of the screen follow, without active or inactive calls. Most of these compounds were active or inconclusive in the main read-out, so they are no random draw. Potencies come from curve fits of mixed quality, noted in brackets.
Test: qHTS Assay to Find Inhibitors of Chronic Active B-Cell Receptor Signaling
Conditions: ABC-DLBCL IkBa-CBG/CBR reporter, luminescence ratio (green luciferase fused to IkBa over red control in TMD8 lymphoma cells), 4 h
Procedure, shortened: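 TMD8 ABC-DLBCL cells carrying doxycycline-inducible green luciferase fused to IkappaBalpha plus unfused red luciferase were exposed to compounds (up to 46 uM) for 4 hrs at 37C. Activity came from the overlap-corrected green/red luminescence ratio.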

[1] = measured here: CBR red luminescence, cell number
[2] = measured here: IkBa-CBG green luminescence

Row | Compound | AC50 [1] | AC50 [2]
1 | O=C(C1COc2ccccc2O1)N1CCN(c2ccc(F)cc2)CC1 (stereo not drawn) | 20 µM [rising, single point] | –
2 | CCOC(=O)c1c(C)[nH]c(C2=NNC(=Nc3ccccc3OC)SC2)c1C | 11.6 µM [falling, partial curve] | –
3 | c1ccc2c(CSCCc3ccncc3)cccc2c1 | 14.1 µM [rising, partial curve, poor fit] | –
4 | COc1cc2c(cc1OC)C(c1ccccc1F)NCC2 (stereo not drawn) | 12.6 µM [rising, partial curve, poor fit] | –
5 | CCCNC(=O)c1cc(S(=O)(=O)N2CCc3ccccc32)ccc1F | 0.731 µM [falling, partial curve, poor fit] | –
6 | Cc1ccsc1/C=N\NC(=O)c1cc(C(C)(C)C)[nH]n1 | 28.2 µM [falling, single point] | –
7 | COc1ccc(C(=O)Nc2ccc(C)cc2C(=O)c2ccccc2)cc1 | 29.1 µM [rising, single point] | –
8 | CCCCCc1cc(=O)oc2c(C(CCN3CCCC(C)C3)c3ccc(N(C)C)cc3)c(OC)cc(OC)c12 (stereo not drawn) | 2.82 µM [rising, single point] | –
9 | CC1CCCN(C(=O)c2cc(F)c(F)cc2Cl)C1 (stereo not drawn) | 4.11 µM [rising, full curve] | –
10 | CCOc1ccc(N/C(SCc2cccc([N+](=O)[O-])c2)=C(/C#N)C(N)=O)cc1 | 25.1 µM [falling, single point] | –
11 | COc1ccccc1OCCCOc1ccc([N+](=O)[O-])cc1Cl | 1.41 µM [rising, full curve] | –
12 | CCc1cccc(OCC(=O)Nc2ccc(C)c(S(=O)(=O)N3CCCCCC3)c2)c1 | 23.1 µM [rising, partial curve, poor fit] | –
13 | O=C(Cn1ncc2c3ccccc3n(Cc3ccccc3)c2c1=O)NCCN1CCOCC1 | 15.8 µM [falling, single point] | –
14 | CC(=O)c1cnc2cc(-c3ccc(Cl)cc3)nn2c1C | 32.6 µM [rising, single point] | –
15 | Oc1c(/C=N/c2ccccn2)sc2ccccc12 | 8.91 µM [falling, partial curve, poor fit] | –
16 | Clc1ccc(OCc2cc(-c3ccccc3)no2)cc1Cl | 3.26 µM [falling, single point] | –
17 | COc1cc(/C=C/C(=O)c2ccccc2O)cc(OC)c1OC | 3.98 µM [rising, partial curve] | –
18 | COc1ccc(C2CCCN2C(=O)Nc2cccc(C(C)=O)c2)cc1OC (stereo not drawn) | 6.51 µM [falling, single point] | –
19 | Cc1c(CC(=O)O)c(=O)oc2c(C)c(OCc3c(F)cccc3Cl)ccc12 | 35.5 µM [falling, single point] | –
20 | COc1ccc(N2CCN(c3nc(Nc4ccc(C)c(F)c4)nc(N4CCCC4)n3)CC2)cc1 | 6.31 µM [rising, single point] | –
21 | O=C(NC(=O)c1ccc(Cl)cc1)Nc1ccc(-c2cnco2)cc1 | 17.8 µM [falling, single point] | –
22 | COc1ccc(C(=O)Nc2ccccc2C(=O)N/N=C/c2ccccn2)cc1OC | 10 µM [falling, partial curve, poor fit] | –

Row | Compound | AC50 [1] | AC50 [2]
23 | Cc1c(CCO)c(=O)[nH]n1S(=O)(=O)c1ccccc1 | 11.2 µM [rising, partial curve, poor fit] | –
24 | S=C(NCCc1ccccn1)Nc1ccc(Cl)cc1 | 7.31 µM [rising, partial curve, poor fit] | –
25 | CCN(CC)c1ccc2cc(-c3nc(-c4ccc(OC)cc4)cs3)c(=O)oc2c1 | 3.66 µM [falling, single point] | –
26 | CN(C)/C(CN1CCOCC1)=C1\N=C(c2ccccc2)OC1=O | 3.16 µM [falling, partial curve, poor fit] | –
27 | Cc1cc(C)n2nc(CC(=O)NNC(=O)COc3ccccc3)nc2n1 | 1.12 µM [rising, partial curve, poor fit] | –
28 | Cc1ccc(NC(=O)COc2cccc(Oc3ccccc3)c2)cc1S(=O)(=O)N1CCOCC1 | 13 µM [rising, partial curve] | 16.4 µM [falling, partial curve, poor fit]
29 | CCOc1ncccc1C(=O)NCc1ccc(C)cc1 | 5.8 µM [falling, full curve] | –
30 | CCOC(=O)c1c(NC(=O)CSc2ncccn2)sc2c1CCN(Cc1ccccc1)C2 | 29.1 µM [falling, single point] | 20.6 µM [rising, partial curve, poor fit]
31 | CCOc1ccc(-c2cc(C(=O)NN=C3CCN(C)CC3)[nH]n2)cc1 | 6.31 µM [rising, single point] | –
32 | COc1cc(-c2cccs2)cc(=O)c2c(C)oc(C)c12 | 12.6 µM [falling, partial curve, poor fit] | –
33 | CCOC(=O)c1c(C)[nH]c(C)c1C(=O)CSc1nnc(-c2ccc(OC(F)F)cc2)o1 | 13 µM [rising, partial curve] | 23.1 µM [falling, single point]
34 | Cc1ccc2[nH]c(CCN(C)C)c(CC#N)c2c1 | 4.11 µM [falling, full curve, poor fit] | –
35 | O=C(Cc1cccc(F)c1)Nc1ccc2c(c1)CCC2 | 0.355 µM [rising, full curve] | –
36 | Oc1oc(-c2ccco2)nc1C=Nc1ccccc1 | 5.17 µM [falling, partial curve] | 3.66 µM [rising, partial curve, poor fit]
37 | Cc1nc(SCC(=O)CC(=O)OC(C)C)c(C#N)c(C)c1C | 2.31 µM [rising, partial curve, poor fit] | –
38 | O=C(NNC1=NS(=O)(=O)c2ccccc21)c1ccc(Cl)cc1 | 14.1 µM [falling, partial curve] | –
39 | CNC(=O)CSCc1c(F)cccc1Cl | 13 µM [rising, partial curve, poor fit] | –
40 | Oc1ccc(/C=N/N2CCN(C3c4ccccc4-c4ccccc43)CC2)c(O)c1 | 35.5 µM [falling, single point] | –
41 | COc1ccccc1C(C[N+](=O)[O-])c1c(N)n(C)c(=O)n(C)c1=O (stereo not drawn) | 7.08 µM [falling, partial curve] | –
42 | O=C(C(=O)N1CCN(c2ccc(F)cc2)CC1)N1CCCCC1 | 3.16 µM [rising, partial curve, poor fit] | –
43 | CCc1ccc(C2C(C#N)=C(N)C(C#N)(C#N)C3=CCC(C(C)(C)C)CC32)cc1 (stereo not drawn) | 20.6 µM [falling, partial curve, poor fit] | –
44 | CCC(=O)NC(=S)Nc1cccc(NC(=O)c2ccccc2C)c1 | 7.08 µM [falling, partial curve, poor fit] | –

Row | Compound | AC50 [1] | AC50 [2]
45 | Cc1cc(SCC(=O)N2CCC(c3noc4ccc(F)cc34)CC2)nc2ccccc12 | 0.58 µM [falling, full curve, poor fit] | –
46 | O=C(CN(C(=O)CSc1nnc(COc2ccccc2)o1)c1ccc(F)cc1)NC1CCCCC1 | 3.66 µM [falling, full curve] | –
47 | Cc1nn(Cc2ccc(Cl)cc2)c(=O)n1N(C)c1ncc(C(F)(F)F)cc1Cl | 2.06 µM [falling, partial curve] | –
48 | CCOc1ccccc1NC(=O)C1C2CCC(O2)C1C(=O)O (stereo not drawn) | 2.82 µM [rising, partial curve, poor fit] | –
49 | COc1ccc2c(c1)nc(SCC(=O)c1ccc(Br)s1)n2C | 35.5 µM [rising, single point] | –
50 | CCn1cc(S(=O)(=O)CC(=O)NC2CCCCC2)c2ccccc21 | 20 µM [falling, single point] | –
51 | O=C(COc1cccc2cccnc12)Nc1ccccc1 | 1.41 µM [falling, full curve, poor fit] | –
52 | CCN(CC)S(=O)(=O)c1cc([N+](=O)[O-])ccc1N1CCC(C(N)=O)CC1 | 20 µM [rising, partial curve, poor fit] | –
53 | Cc1ccc(S(=O)(=O)N2CCC(=O)N(C(COCc3ccc(C(F)(F)F)cc3)Cc3ccccc3)CC2)cc1 (stereo not drawn) | 5.8 µM [rising, full curve, poor fit] | –
54 | O=C(CCl)Nc1cc2[nH]c(=O)[nH]c2cc1Br | 35.5 µM [rising, single point] | –
55 | N#CC1=C(N)Oc2cc3ccccc3cc2C1c1cccs1 (stereo not drawn) | 17.8 µM [falling, single point] | –
56 | CC(=O)NC(CC(=O)NCCN1C(=O)S/C(=C\c2ccccc2)C1=O)c1ccccc1 (stereo not drawn) | 35.5 µM [falling, single point] | –
57 | CCCSc1nc(C)cc(C)c1S(C)(=O)=O | 35.5 µM [rising, single point] | –
58 | CC(C)c1ccc(NC(=O)COC(=O)CSc2nnc(N)s2)cc1 | 3.26 µM [rising, single point] | –
59 | CCc1ccc(OCC(=O)O/N=C(\N)c2ccncc2)cc1 | 6.31 µM [rising, full curve, poor fit] | –
60 | COCCN(C(=O)CCl)C(C(=O)NC1CCCCC1)c1ccccc1C (stereo not drawn) | 29.1 µM [falling, single point] | –
61 | CCOCCCN(C(=O)Nc1ccc(Cl)cc1)C1CCN(C(C)=O)CC1 | 2.82 µM [rising, full curve] | –
62 | COc1cc(-c2nnc(SCC3(c4ccccc4)OCCO3)o2)cc(OC)c1OC | 35.5 µM [falling, single point] | –
63 | CC1=NN(C(N)=S)C(=O)C1N=Nc1c(Cl)cc([N+](=O)[O-])cc1Cl (stereo not drawn) | 10 µM [rising, partial curve, poor fit] | –
64 | CCOc1cccc(C(=O)Nc2ccc3ccccc3c2)c1 | 15.8 µM [falling, partial curve, poor fit] | –

One compound at a time, as listed above:
Cc1ccc(S(=O)(=O)N2CCC(=O)N(C(COCc3ccc(C(F)(F)F)cc3)Cc3ccccc3)CC2)cc1 (stereo not drawn) in the list: AC50 [1]: 5.8 µM [rising, full curve, poor fit]
O=C(CCl)Nc1cc2[nH]c(=O)[nH]c2cc1Br in the list: AC50 [1]: 35.5 µM [rising, single point]
CCOc1ccccc1NC(=O)C1C2CCC(O2)C1C(=O)O (stereo not drawn) in the list: AC50 [1]: 2.82 µM [rising, partial curve, poor fit]
N#CC1=C(N)Oc2cc3ccccc3cc2C1c1cccs1 (stereo not drawn) in the list: AC50 [1]: 17.8 µM [falling, single point]

Source: PubChem BioAssay AID493014 (National Center for Advancing Translational Sciences (NCATS), 2011)
